# Experimental data published in PubChem BioAssay AID2685 (National Center for Advancing Translational Sciences (NCATS), 2010).
# Several values for one entry are separate records, joined by “and”; a condition that tells them apart may be missing. Identical values can stand only once. The list shows a part of the results. These are further read-outs of the screen, such as a control signal, another cell line or another target. No call is given for them. The list favours compounds with an active or inconclusive main result. The note in brackets gives the kind of curve behind each potency; many fits are weak.
# Experiment: qHTS Assay for Lipid Storage Modulators in Drosophila S3 Cells;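 as to cell number change: cells counted by Cell Tracker Red CMTPX staining in the red channel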
# Conditions: BODIPY lipid droplet fluorescence, 18-24 h; for cell number change: measured here: cell count max response, cells fed with added oleic acid
# How it was run: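 Drosophila S3 cells got compounds at several concentrations plus oleic acid (400 uM solution). Laser-scanning cytometry with 488 nm excitation read lipid droplets at 500-530 nm and cells at 575-640 nm. Percent activity was relative to 20 uM Triacsin C.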
# [1] = measured here: lipid fluorescence (Fed channel) AC50, cells fed with added oleic acid
# [2] = measured here: cell number channel AC50, cells fed with added oleic acid
SMILES,cell number change,AC50 [1],AC50 [2]
Cc1cc2ccccn2c1C(=O)c1ccc(Cl)cc1,-24.9%,"18.4 µM [falling, single point]",
Cn1c(=NC(=O)C2=NNC(=O)CC2)sc2ccccc21,50.2%,,"1.16 µM [rising, full curve, poor fit]"
C/C(CCC(=O)O)=N/Nc1ccc([N+](=O)[O-])cc1[N+](=O)[O-],-24.4%,,
CC(C)(C)c1ccc(C(=O)NCc2nnc(SCC(=O)N3CCCc4ccccc43)n2-c2ccccc2)cc1,-14.6%,"29.1 µM [falling, single point]",
O=c1c2oc3ccccc3c2ncn1Cc1ccccc1Cl,101%,"18.4 µM [rising, partial curve]","18.4 µM [rising, single point]"
CCCn1c(SCC(=O)N2CCN(C(=O)c3ccco3)CC2)nc2ccccc2c1=O,,,"0.82 µM [rising, full curve, poor fit]"
CC(C)C(OC(=O)c1ccco1)C(=O)NCc1ccco1 (stereo unspecified),-4.65%,"0.092 µM [falling, full curve, poor fit]",
CCn1cc(/C=C/C(=O)Nc2c(C)nn(Cc3ccccc3C)c2C)cn1,25.1%,"3.66 µM [rising, partial curve]",
CCn1c(SCC(=O)NCc2ccccc2)nnc1-c1c[nH]c2ccccc12,2.58%,"18.4 µM [rising, single point]",
O=C(NC(=S)Nc1ccc2ncccc2c1)c1ccccc1,-9.02%,,
CCCn1c(C(C)Nc2nc(-c3ccc(Cl)c([N+](=O)[O-])c3)cs2)nc2ccccc21 (stereo unspecified),6.47%,,
Cc1cc(NC(=O)CCC(=O)N(c2cccc(F)c2)C(C(=O)NC2CCCC2)c2ccccc2)no1 (stereo unspecified),10.4%,"1.84 µM [rising, full curve]",
CCOc1ccc(C(=O)/C=C/Nc2ccc(S(=O)(=O)N=C(N)N)cc2)cc1,6.39%,"0.731 µM [rising, full curve, poor fit]",
Nc1cc(N2CCCC2)ccc1[N+](=O)[O-],-13.1%,"18.4 µM [falling, single point]",
Cc1ccc2c(C)nc(Nc3nc(CSc4nnnn4-c4ccccc4)cc(=O)[nH]3)nc2c1,,"0.651 µM [rising, partial curve, poor fit]","0.651 µM [rising, single point]"
S=C(Nc1ccccn1)c1ccccn1,-18.1% and -10.5%,"13 µM [falling, partial curve, poor fit] and 25.9 µM [rising, single point]",
Cc1csc(=O)n1CCC(=O)OCC(=O)Nc1cccc(C#N)c1,-1.36%,"1.16 µM [falling, full curve]",
COc1ccc(C(=O)CN2C(=O)NC3(CCCc4ccccc43)C2=O)cc1 (stereo unspecified),19.7%,,"3.26 µM [falling, single point]"
CCCCNc1c(-c2cccc(-c3ccc(OC)cc3)c2)nc2ccc(C)cn12,-23.3%,"0.164 µM [rising, full curve, poor fit]",
O=C(NC(=S)NNC(=O)c1ccc(Cl)cc1Cl)c1cccnc1,,,"0.731 µM [rising, single point]"
CC(C)Cc1cc(C(C)(C)C)ccc1OC(=S)N(C)C,45%,"13 µM [rising, partial curve]","13 µM [rising, partial curve]"

SMILES,cell number change,AC50 [1],AC50 [2]
COc1ccc(CC(=O)NNC(=O)CSc2ccc(C)cc2)cc1,,"0.13 µM [falling, full curve, poor fit]","6.51 µM [falling, single point]"
Nc1c(Cl)ncnc1N/N=C/c1ccnc2ccccc12,8.2%,"1.3 µM [rising, full curve]",
Cc1cc(C)c(C#N)c(SCC(=O)NC(C)(C)C)n1,17.4%,"9.2 µM [rising, partial curve, poor fit]",
O=C(Cn1c(=O)n(Cc2ccccc2)c(=O)c2ccccc21)NCc1ccco1,-7.26%,"0.13 µM [rising, full curve, poor fit]","0.0731 µM [rising, full curve, poor fit]"
O=C(Nc1cccc(-c2cnc3ccccc3n2)c1)C1CC(=O)N(c2ccccc2)C1 (stereo unspecified),47.4%,"1.84 µM [falling, partial curve]","29.1 µM [rising, single point]"
CC(=O)c1ccc(S(=O)(=O)NCCc2csc(-c3cccnc3)n2)cc1,9.07%,"1.78 µM [rising, full curve, poor fit]",
CC(=O)Nc1ccc(C(=O)OCC(=O)NCc2ccc(Cl)cc2)cc1,-19.9%,"0.461 µM [falling, single point]",
Cc1ccc(CCN2CC(C(=O)NCCCN3CCCCCC3)CC2=O)cc1 (stereo unspecified),3.82%,"1.3 µM [falling, full curve, poor fit]",
CCc1cc2c(SCC(=O)N3CC(=O)Nc4ccccc43)ncnc2s1,37.8%,"9.2 µM [rising, partial curve]","8.2 µM [rising, partial curve]"
Oc1ccc(N2CCN(c3ncnc4sc5c(c34)CCC5)CC2)cc1,-21.4%,"20.6 µM [falling, partial curve]",
CCOc1ccccc1OCC(=O)Nc1ccc(N2CCOCC2)cc1N1CCOCC1,53.4%,,"14.6 µM [rising, partial curve]"
CCCOc1ccc(-c2nc(-c3ccc([N+](=O)[O-])cc3)cs2)cc1,-11.1%,"18.4 µM [falling, single point]",
O=C(CCCN1C(=O)/C(=C\c2ccco2)SC1=S)Nc1cccc2ccccc12,20.9%,,
O=C(N/N=C/c1cccnc1)c1cc(-c2cccs2)nc2ccccc12,27.8%,,
FC(F)(F)Oc1ccc(Nc2nc3ccccc3o2)cc1,-37.3%,"32.6 µM [falling, single point]","13 µM [falling, partial curve]"
Oc1ccccc1C=NCCN=Cc1ccccc1O,14.8%,,
COc1cccc2c(=O)c(SC(F)(F)C(F)C(F)(F)F)c(C)[nH]c12 (stereo unspecified),-4.76%,"0.82 µM [rising, partial curve, poor fit]",
O=c1[nH]c(/C=C\c2cccc(F)c2)nc(O)c1[N+](=O)[O-],3.23%,,
Cc1ccc(-c2nnc(N3CCOCC3)c3ccccc23)cc1S(=O)(=O)N(C)C,18.1%,,"0.116 µM [rising, full curve, poor fit]"
O/C(=C\Sc1nnc(Cc2ccccc2)o1)c1ccc(F)cc1,-6.94%,"6.51 µM [rising, single point]",
CCOC(=O)C1CCCN(C(=O)c2ccc3c(c2)N(C)C(=O)/C(=C/c2ccccc2Cl)S3)C1 (stereo unspecified),-9.44%,"1.84 µM [falling, partial curve]","2.31 µM [falling, partial curve]"

SMILES,cell number change,AC50 [1],AC50 [2]
CC(=O)c1c(C)[nH]c(C(=O)COc2cc(C)ccc2C(C)C)c1C,-22.2%,"0.58 µM [falling, partial curve]","1.16 µM [falling, partial curve, poor fit]"
CCOC(=O)C1(Cc2cccc(OC)c2)CCN(C/C=C/c2ccc(OC)cc2)CC1,-41%,"29.1 µM [falling, single point]","25.9 µM [falling, single point]"
CCOc1ccc(OCCC(=O)OC(C)C(=O)Nc2ccc(Cl)cn2)cc1 (stereo unspecified),,"16.4 µM [falling, single point]",
COc1cc(C(=O)OCC(=O)NC(=O)c2cccn2C)ccc1OC(F)F,12.5%,,"0.116 µM [falling, full curve, poor fit]"
CCOc1ccccc1CN1CCNC(=O)C1CC(=O)NCc1ccccn1 (stereo unspecified),-17.1%,,
Cc1cc(C)c2c3c(sc2n1)C1(CCSCC1)C(C#N)=C(N)O3,-39.4%,,"18.4 µM [falling, single point]"
CCc1ccc(OCCCCN(C)Cc2ccccc2)cc1,2.93%,,
O=C(c1cccc([N+](=O)[O-])c1)N1CCN(c2ncccn2)CC1,34.1%,"29.1 µM [rising, single point]","29.1 µM [rising, single point]"
COc1ccccc1NC(=O)COc1ccccc1C(=O)Nc1ccccc1,16.6%,,
COc1ccc(/C=N/N=C/c2ccc(OC)cc2)cc1,65.5%,,"29.1 µM [rising, single point]"
CN1CC2(C(=O)c3ccccc3)CN(C)CC(C(=O)c3ccccc3)(C1)C2,-14.8%,"1.84 µM [falling, partial curve]",
C/C(=N/NC(=O)CNS(=O)(=O)c1ccc(C)cc1)c1cccc([N+](=O)[O-])c1,35%,,"1.03 µM [rising, full curve]"
O=c1c2sccc2nc(SCc2ccc([N+](=O)[O-])cc2)n1Cc1ccccn1,,"0.58 µM [rising, full curve]",
COc1ccc(Br)cc1CNC(=O)CCc1nc(-c2ccccc2F)no1,17.7%,,"0.731 µM [rising, full curve, poor fit]"
CCOc1ccc(CNC(=O)c2ccc3nc(N4CCOCC4)sc3c2)cc1,20.1%,,
NC1=NC(=O)/C(=C\c2ccco2)S1,-16.6%,"0.291 µM [falling, partial curve, poor fit]",
Cc1ccc(C)c(NC(=O)Cc2nc(CCl)cs2)c1,-18.3%,,"0.103 µM [falling, full curve, poor fit]"
O=C1c2ccsc2SCCN1Cc1ccccc1Cl,-4.06%,,
O=C1c2c(O)cccc2C(C2OC(CO)[C@@H](O)[C@H](O)[C@H]2O)c2cc(CO)cc(O)c21 (stereo partly specified),-58.6%,,"29.1 µM [falling, single point]"
